Source: patent US10426841B2, “Combination of drugs with protein-binding prodrugs” (VERGELL MEDICAL S.A., priority 2010, dated 2019)
At least one compound was matched to its structure with a doubt left.

Test: Maximum tolerated dose in nude mice
Type: in vivo

In the case of COc1cccc2c1C(=O)c1c(O)c3c(c(O)c1C2=O)CC(O)(C(CO)=NNC(=O)CCCCCN1C(=O)C=CC1=O)CC3OC1CC(N)C(O)C(C)O1 (stereo not shown) [DOXO-EMCH, 6-maleimidocaproyl(hydrazone) derivative of doxorubicin], the “maximum tolerated dose (MTD)” value is reported as 3×24 mg/kg body weight doxorubicin equivalents.
